The record followed here is doi:10.1101/2020.12.31.424961.

Sequences of proteins named here, by UniProt entry; tags and fusion partners are left off. Residues count along the entry.
UniProt Q15303, 26-1308: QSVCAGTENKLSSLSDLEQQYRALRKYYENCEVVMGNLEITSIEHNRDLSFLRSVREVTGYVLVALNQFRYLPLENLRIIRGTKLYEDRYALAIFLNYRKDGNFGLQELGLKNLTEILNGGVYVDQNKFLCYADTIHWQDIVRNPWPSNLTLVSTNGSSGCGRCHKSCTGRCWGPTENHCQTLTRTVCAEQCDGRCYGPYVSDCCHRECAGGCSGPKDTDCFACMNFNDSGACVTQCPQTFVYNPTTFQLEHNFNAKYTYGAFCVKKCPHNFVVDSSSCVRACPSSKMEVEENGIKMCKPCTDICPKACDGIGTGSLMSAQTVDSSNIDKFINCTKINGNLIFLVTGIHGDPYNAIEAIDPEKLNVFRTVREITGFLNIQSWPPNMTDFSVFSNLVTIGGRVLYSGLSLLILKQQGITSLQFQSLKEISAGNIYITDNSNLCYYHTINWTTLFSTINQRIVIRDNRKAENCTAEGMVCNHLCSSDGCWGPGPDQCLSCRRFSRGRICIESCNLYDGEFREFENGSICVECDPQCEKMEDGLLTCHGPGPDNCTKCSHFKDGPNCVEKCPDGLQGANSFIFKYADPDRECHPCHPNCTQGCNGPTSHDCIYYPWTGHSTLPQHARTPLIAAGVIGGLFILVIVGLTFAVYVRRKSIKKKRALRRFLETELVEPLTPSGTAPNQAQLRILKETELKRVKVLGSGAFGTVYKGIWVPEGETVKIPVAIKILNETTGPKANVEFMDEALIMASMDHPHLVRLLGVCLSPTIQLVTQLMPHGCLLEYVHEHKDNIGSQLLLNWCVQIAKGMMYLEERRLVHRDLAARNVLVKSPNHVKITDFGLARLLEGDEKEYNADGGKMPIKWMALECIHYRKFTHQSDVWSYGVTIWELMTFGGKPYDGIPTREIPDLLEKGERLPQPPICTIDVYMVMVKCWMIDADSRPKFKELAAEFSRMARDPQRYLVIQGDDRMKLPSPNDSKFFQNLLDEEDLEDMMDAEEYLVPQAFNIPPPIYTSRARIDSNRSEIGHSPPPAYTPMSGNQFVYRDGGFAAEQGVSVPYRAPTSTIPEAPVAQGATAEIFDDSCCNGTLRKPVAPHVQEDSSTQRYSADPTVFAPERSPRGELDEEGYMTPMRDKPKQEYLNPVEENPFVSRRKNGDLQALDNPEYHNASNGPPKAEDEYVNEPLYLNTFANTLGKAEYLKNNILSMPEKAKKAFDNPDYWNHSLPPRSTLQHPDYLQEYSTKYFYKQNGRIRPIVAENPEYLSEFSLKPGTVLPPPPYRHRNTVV

Results are given in words; binding and its absence hold for the method and conditions named. Binding seen in cells or lysates may run through a third protein. These calls come from enrichment with a bait or labelling near it, and not all partners need be listed. For part of these data: Tags and fused reporters may be left off the sequences shown.

For assay [1], the target named is SARS-CoV-2 NSP15, SFB- or BioID2-tagged (SARS-CoV-2) (UniProt P0DTD1). Kind of assay: affinity purification with mass spectrometry + proximity labelling.
Assay [2] addresses SARS-CoV-2 NSP6, SFB- or BioID2-tagged (SARS-CoV-2) (UniProt P0DTD1). The assay is described as above.
In assay [3] the target is SARS-CoV-2 NSP3, SFB- or BioID2-tagged (SARS-CoV-2) (UniProt P0DTD1). The assay is described as above.
Assay [4] has as its target T1, HCoV-229E NSP1, BioID2-tagged (HCoV-229E) (UniProt P0C6X1).
T1 sequence: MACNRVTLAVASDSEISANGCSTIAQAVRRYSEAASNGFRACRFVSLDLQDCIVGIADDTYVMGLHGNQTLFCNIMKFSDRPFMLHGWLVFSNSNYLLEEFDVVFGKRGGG
Kind of assay: proximity labelling.

Assay [5] addresses HCoV-OC43 NSP1, BioID2-tagged (HCoV-OC43) (UniProt P0C6X6). The experiment in a line: proximity labelling.
Assay [6] has as its target MERS-CoV NSP1, SFB- or BioID2-tagged (MERS-CoV) (UniProt K9N7C7). The experiment in a line: affinity purification with mass spectrometry + proximity labelling.
Assay [7] has as its target SARS-CoV-1 NSP1, SFB- or BioID2-tagged (SARS-CoV-1) (UniProt P0C6X7). The description is as above.
Assay [8] addresses T2, HCoV-229E NSP1, SFB- or BioID2-tagged (HCoV-229E) (UniProt P0C6X1).
T2 sequence: T1 sequence
The description is as above.

Assay [9] addresses SARS-CoV-2 NSP1, SFB- or BioID2-tagged (SARS-CoV-2) (UniProt P0DTD1). The description is as above.
The target of assay [10] is SARS-CoV-2 NSP7, SFB- or BioID2-tagged (SARS-CoV-2) (UniProt P0DTD1). The assay is described as above.
The target in assay [11] is SARS-CoV-2 ORF7b, SFB- or BioID2-tagged (SARS-CoV-2) (UniProt P0DTD8). Described as above.
The target of assay [12] is MERS-CoV NSP1, SFB-tagged (MERS-CoV) (UniProt K9N7C7). The experiment in a line: affinity purification with mass spectrometry.
Assay [13] addresses SARS-CoV-1 NSP1, SFB-tagged (SARS-CoV-1) (UniProt P0C6X7). The experiment in a line: affinity purification with mass spectrometry.
Assay [14] concerns the target T3, HCoV-229E NSP1, SFB-tagged (HCoV-229E) (UniProt P0C6X1).
T3 sequence: T1 sequence
Kind of assay: affinity purification with mass spectrometry.

The target of assay [15] is SARS-CoV-2 NSP1, SFB-tagged (SARS-CoV-2) (UniProt P0DTD1). The experiment in a line: affinity purification with mass spectrometry.
The target in assay [16] is SARS-CoV-2 NSP5, SFB- or BioID2-tagged (SARS-CoV-2) (UniProt P0DTD1). The experiment in a line: affinity purification with mass spectrometry + proximity labelling.
Assay [17] concerns the target SARS-CoV-2 ORF6, SFB- or BioID2-tagged (SARS-CoV-2) (UniProt P0DTC6). The assay is described as above.
Assay [18] deals with SARS-CoV-2 ORF3a, SFB- or BioID2-tagged (SARS-CoV-2) (UniProt P0DTC3). Described as above.

As for ANXA5 (from UniProt P08758 1-320), the binding entry in [1] is reported as “binds”.
Take ATP5F1B (from UniProt P06576 48-529): the binding entry in assay [2] was “binds”.
With ATP5PB (from UniProt P24539 43-256), in [2], the binding entry was “binds”.
Same read-out and setting: in the case of ATP5PF (from UniProt P18859 33-108) it was “binds”; in that of ATP5PO (from UniProt P48047 24-213), “binds”.
Still for that read-out and setting: in the case of ATP6AP1 (from UniProt Q15904 42-470) it was “binds”; in that of ATP13A3 (from UniProt Q9H7F0 1-1226), “binds”.
For BAZ1A (from UniProt Q9NRL2 1-1556), the binding entry in assay [3] is recorded as “binds”.
Take BAZ1B (from UniProt Q9UIG0 1-1483): the binding result in assay [3], in [4] and in assay [5] was “binds” each time.
Consider BCLAF1 (from UniProt Q9NYF8 1-920), for which the binding result in assay [6], in assay [7], in assay [8] and in assay [9] was “binds” each time.
On to CAV1 (from UniProt Q03135 1-178), for which, in assay [2], the binding result is reported as “binds”.
As to CNOT1 (from UniProt A5YKK6 1-2376), the binding entry in [10] is recorded as “binds”.
On the same count and under the same terms, in the case of CNOT2 (from UniProt Q9NZN8 1-540) it was “binds”; in that of CNOT3 (from UniProt O75175 1-753), “binds”.
With DHFR (from UniProt P00374 1-187), the binding entry in assay [2] is “binds”.
Turning to DIS3L2 (from UniProt Q8IYB7 1-885), the binding result in [6], in assay [7], in [8] and in [9] was “binds” in each case.
In the case of DVL2 (from UniProt O14641 1-736), the binding result in assay [10] is recorded as “binds”.
On to “EGFR (from UniProt P00533 25-1210) (receptor)”, for which, in [11], the binding result is “binds”.
Consider EIF4G2 (from UniProt P78344 1-907), for which the binding result in assay [12], in assay [13], in [14] and in assay [15] was “binds” each time.
As for “ERBB2 (from UniProt P04626 23-1255) (receptor)”, the binding result in assay [11] is listed as “binds”.
In the case of ERBB4 (from UniProt Q15303) (receptor), the binding result in [11] is on record as “binds”.
Turning to ERCC3 (from UniProt P19447 1-782), the binding result in assay [14] was “binds”.
For the substance GTF2H1 (from UniProt P32780 1-548), in [14], the binding result is “binds”.
The same measure, in the same setting: in the case of GTF2H2 (from UniProt Q13888 1-395) it was “binds”.
Still for that read-out and setting: in the case of GTF2H4 (from UniProt Q92759 1-462) it was “binds”.
For MACROH2A1 (from UniProt O75367 1-369), the binding result in assay [3], in assay [4] and in [5] was “binds” each time.
Turning to MACROH2A2 (from UniProt Q9P0M6 1-372), the binding result in assay [3], in assay [4] and in assay [5] was “binds” throughout.
For the substance MDC1 (from UniProt Q14676 1-2089), the binding entry in assay [16] is on record as “binds”.
In the case of PSIP1 (from UniProt O75475 1-530), the binding result in assay [4] and in [5] was “binds” in each case.
PUM3 (from UniProt Q15397 1-648): the binding result in assay [4] and in assay [5] was “binds” each time.
In the case of RIPK1 (from UniProt Q13546 1-671), the binding result in [6], in assay [7], in [8] and in assay [9] was “binds” each time.
SEC23A (from UniProt Q15436 1-765): in assay [17], the binding result is “binds”.
Still for that read-out and setting: the result for SEC24A (from UniProt O95486 1-1093) reads “binds”.
SEC31A (from UniProt O94979 1-1220): in assay [17], the binding entry is recorded as “binds”.
For SIGMAR1 (from UniProt Q99720 1-223), the binding result in [2] was “binds”.
Turning to SMARCA1 (from UniProt P28370 1-1042), the binding entry in [4] and in assay [5] was “binds” in each case.
Consider SMARCA4 (from UniProt P51532 1-1647), for which the binding entry in assay [3] is on record as “binds”.
For the substance SMARCA5 (from UniProt O60264 1-1052), the binding entry in assay [4] and in assay [5] was “binds” throughout.
On to SMG6 (from UniProt Q86US8 1-1419), for which the binding result in [6], in [7], in assay [8] and in assay [9] was “binds” each time.
Take SSRP1 (from UniProt Q08945 1-709): the binding result in assay [6], in assay [3], in [7], in assay [8] and in assay [9] was “binds” throughout.
With SUPT16H (from UniProt Q9Y5B9 1-1047), the binding result in assay [3], in [4] and in assay [5] was “binds” throughout.
TDRD3 (from UniProt Q9H7E2 1-651): the binding result in assay [6], in assay [7], in assay [8] and in [9] was “binds” in each case.
On to TOP2B (from UniProt Q02880 1-1626), for which the binding entry in [4] and in [5] was “binds” throughout.
With TRAPPC9 (from UniProt Q96Q05 1-1148), the binding entry in assay [18] is recorded as “binds”.
Same read-out and setting: in the case of TRAPPC10 (from UniProt P48553 1-1259) it was “binds”.
USP11 (from UniProt P51784 1-963): the binding entry in [16] is “binds”.
For VAMP2 (from UniProt P63027 1-116), the binding result in assay [11] is recorded as “binds”.
Take VAMP3 (from UniProt Q15836 1-100): the binding entry in [11] is reported as “binds”.
On to VDAC1 (from UniProt P21796 1-283), for which the binding result in [2] was “binds”.
